In article doi:10.1101/2024.02.13.579840:
These are yes or no findings as the source states them, for the method shown. In cells and extracts the contact can be indirect. These calls come from enrichment with a bait or labelling near it, and not all partners need be listed. A no says only that the protein was not detected with the bait. For part of these data: Sequences can lack the tags named with a protein.

Chains of the proteins cited; added tags and fusions are not shown.
UniProt Q9UHY1: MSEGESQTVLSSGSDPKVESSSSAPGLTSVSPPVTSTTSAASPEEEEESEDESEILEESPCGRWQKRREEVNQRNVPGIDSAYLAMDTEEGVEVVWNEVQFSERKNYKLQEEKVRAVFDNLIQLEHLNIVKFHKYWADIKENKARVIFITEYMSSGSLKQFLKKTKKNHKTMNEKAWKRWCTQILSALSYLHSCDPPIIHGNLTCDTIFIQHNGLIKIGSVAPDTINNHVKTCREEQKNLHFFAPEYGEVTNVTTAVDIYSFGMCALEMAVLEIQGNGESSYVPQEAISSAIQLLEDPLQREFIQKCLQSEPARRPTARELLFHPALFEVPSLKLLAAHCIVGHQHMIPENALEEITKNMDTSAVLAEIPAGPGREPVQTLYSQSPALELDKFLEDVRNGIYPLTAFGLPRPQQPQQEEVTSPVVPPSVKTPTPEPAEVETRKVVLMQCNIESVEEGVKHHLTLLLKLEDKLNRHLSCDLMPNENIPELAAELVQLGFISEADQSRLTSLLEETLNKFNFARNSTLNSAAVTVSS
UniProt Q9H4A3: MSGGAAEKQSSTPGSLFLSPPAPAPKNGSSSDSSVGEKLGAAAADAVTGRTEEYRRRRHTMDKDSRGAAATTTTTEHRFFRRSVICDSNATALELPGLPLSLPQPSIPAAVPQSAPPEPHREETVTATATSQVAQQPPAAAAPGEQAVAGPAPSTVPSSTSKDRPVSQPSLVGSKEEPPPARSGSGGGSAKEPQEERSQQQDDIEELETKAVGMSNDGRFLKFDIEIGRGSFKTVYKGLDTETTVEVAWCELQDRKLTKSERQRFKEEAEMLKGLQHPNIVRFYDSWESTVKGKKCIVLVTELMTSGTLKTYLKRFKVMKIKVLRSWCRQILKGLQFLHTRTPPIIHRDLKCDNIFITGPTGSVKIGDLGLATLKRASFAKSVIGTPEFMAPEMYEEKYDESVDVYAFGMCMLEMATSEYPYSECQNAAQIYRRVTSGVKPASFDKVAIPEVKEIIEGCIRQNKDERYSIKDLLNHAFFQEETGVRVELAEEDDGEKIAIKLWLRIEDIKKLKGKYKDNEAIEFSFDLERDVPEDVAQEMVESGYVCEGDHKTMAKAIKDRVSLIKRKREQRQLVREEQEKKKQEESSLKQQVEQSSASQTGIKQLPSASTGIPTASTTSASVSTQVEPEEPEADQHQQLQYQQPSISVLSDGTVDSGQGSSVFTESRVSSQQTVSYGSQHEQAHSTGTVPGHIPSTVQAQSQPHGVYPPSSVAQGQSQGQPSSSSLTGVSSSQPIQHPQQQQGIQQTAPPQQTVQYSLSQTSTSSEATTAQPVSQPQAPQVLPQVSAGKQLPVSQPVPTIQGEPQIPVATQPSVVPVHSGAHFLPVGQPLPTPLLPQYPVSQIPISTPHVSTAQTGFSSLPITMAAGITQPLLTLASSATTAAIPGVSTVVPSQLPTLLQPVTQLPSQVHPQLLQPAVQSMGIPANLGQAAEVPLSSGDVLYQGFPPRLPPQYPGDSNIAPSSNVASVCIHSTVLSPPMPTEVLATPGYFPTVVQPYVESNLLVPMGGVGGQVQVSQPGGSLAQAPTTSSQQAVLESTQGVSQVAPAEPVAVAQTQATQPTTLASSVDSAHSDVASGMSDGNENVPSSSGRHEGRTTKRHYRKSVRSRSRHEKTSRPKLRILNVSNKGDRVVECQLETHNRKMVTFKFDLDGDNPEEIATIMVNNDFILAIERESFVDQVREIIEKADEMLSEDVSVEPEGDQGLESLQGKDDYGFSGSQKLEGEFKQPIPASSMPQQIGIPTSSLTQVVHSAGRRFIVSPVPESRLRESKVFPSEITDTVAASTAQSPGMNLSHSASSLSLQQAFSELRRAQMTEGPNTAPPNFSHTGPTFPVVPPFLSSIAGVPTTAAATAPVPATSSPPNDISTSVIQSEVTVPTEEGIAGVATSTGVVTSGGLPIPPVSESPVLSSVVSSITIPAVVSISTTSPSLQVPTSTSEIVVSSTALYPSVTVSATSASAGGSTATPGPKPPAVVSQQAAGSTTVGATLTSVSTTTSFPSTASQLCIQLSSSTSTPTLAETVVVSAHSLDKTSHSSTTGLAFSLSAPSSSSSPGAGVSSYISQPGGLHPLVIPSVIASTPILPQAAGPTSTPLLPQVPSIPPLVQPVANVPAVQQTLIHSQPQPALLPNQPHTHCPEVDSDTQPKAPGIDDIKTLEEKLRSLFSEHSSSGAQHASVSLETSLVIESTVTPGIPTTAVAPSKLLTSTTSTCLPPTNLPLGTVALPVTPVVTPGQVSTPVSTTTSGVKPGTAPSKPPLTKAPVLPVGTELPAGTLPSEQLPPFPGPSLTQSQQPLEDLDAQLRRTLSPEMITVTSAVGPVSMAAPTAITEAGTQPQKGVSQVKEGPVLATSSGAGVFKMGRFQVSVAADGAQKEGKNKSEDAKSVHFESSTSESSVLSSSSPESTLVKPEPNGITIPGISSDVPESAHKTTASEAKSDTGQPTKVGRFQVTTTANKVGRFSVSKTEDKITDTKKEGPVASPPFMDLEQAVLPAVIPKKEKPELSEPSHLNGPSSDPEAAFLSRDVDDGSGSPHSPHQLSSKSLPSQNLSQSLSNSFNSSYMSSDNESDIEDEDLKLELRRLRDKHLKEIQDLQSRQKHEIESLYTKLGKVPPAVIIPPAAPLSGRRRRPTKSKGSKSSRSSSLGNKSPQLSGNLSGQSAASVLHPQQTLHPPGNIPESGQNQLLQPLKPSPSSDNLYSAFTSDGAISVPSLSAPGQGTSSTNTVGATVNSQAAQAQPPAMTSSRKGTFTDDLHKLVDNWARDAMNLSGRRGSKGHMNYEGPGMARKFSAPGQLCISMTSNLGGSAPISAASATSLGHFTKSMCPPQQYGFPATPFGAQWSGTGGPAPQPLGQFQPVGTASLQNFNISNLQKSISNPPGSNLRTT
UniProt Q6ZN16: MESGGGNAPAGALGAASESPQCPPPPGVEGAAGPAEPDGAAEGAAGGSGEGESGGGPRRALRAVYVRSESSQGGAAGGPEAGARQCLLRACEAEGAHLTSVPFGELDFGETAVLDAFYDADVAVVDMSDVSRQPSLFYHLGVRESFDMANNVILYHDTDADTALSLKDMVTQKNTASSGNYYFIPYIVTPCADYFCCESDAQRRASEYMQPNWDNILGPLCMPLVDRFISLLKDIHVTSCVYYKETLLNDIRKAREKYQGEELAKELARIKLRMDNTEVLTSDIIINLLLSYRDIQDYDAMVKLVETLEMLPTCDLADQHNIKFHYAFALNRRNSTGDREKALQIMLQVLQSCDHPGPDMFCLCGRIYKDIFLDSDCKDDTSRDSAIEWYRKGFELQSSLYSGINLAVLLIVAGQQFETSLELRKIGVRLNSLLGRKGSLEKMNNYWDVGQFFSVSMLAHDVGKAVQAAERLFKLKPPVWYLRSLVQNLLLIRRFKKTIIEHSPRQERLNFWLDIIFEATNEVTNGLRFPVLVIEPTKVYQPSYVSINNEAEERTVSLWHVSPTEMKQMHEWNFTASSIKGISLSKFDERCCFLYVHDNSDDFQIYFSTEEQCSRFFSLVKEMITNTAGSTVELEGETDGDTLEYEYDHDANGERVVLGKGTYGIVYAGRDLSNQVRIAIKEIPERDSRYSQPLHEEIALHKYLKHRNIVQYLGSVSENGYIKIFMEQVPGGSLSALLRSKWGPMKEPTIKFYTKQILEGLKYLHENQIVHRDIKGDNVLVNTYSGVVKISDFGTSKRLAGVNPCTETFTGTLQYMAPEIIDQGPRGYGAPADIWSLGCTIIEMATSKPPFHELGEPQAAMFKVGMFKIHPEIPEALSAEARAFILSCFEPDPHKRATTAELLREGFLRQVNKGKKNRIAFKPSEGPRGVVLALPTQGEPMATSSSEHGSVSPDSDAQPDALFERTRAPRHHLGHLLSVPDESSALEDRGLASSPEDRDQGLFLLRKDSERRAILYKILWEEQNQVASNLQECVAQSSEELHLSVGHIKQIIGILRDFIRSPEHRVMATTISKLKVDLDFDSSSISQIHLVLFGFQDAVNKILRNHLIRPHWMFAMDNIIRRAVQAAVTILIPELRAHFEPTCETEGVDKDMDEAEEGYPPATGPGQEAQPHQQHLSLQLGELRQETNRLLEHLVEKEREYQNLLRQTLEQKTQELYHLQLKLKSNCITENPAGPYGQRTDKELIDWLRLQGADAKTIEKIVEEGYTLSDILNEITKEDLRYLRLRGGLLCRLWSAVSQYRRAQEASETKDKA
UniProt O95747: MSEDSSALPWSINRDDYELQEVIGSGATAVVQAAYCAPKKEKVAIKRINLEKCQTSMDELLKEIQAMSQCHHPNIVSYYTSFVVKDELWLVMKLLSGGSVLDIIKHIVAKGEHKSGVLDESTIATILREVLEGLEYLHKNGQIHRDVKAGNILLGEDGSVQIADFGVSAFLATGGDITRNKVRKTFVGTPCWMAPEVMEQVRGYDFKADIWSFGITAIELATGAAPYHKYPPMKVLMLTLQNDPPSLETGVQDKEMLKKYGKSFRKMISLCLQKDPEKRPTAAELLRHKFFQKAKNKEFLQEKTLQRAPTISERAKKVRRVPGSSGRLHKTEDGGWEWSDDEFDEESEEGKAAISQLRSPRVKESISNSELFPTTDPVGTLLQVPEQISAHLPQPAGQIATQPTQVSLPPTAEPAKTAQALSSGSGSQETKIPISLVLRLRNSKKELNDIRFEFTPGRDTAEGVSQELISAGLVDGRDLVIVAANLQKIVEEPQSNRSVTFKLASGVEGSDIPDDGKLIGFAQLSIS

What was measured:
Experiment in all cases: proximity labelling
[1] = biological target: miniTurbo-2xHA endo-tagged NRBP1 (human (endogenous in HAP1)) (UniProt Q9UHY1)
[2] = biological target: T1, miniTurbo-2xHA endo-tagged TSC22D2 (human (endogenous in HAP1)) (UniProt O75157)
T1 sequence: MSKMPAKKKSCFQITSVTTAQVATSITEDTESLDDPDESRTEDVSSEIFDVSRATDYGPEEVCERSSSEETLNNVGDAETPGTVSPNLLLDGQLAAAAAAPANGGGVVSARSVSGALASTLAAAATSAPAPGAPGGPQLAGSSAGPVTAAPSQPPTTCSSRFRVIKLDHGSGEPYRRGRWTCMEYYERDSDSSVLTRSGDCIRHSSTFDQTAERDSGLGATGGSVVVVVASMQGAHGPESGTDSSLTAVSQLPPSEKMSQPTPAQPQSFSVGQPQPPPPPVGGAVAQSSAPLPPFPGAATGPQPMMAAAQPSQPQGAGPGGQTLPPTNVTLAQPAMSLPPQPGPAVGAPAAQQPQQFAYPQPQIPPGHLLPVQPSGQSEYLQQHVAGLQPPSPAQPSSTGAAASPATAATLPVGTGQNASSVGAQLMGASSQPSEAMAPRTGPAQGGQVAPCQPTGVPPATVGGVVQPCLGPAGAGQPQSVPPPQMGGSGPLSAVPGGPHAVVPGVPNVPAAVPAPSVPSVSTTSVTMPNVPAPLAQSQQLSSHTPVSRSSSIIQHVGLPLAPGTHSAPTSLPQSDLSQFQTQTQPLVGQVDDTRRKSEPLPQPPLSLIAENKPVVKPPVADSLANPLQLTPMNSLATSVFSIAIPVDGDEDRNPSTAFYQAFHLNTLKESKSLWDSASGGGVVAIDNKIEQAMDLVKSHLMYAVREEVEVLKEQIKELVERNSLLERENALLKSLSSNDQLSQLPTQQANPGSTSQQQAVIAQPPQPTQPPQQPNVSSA

[3] = biological target: miniTurbo-2xHA endo-tagged WNK1 (human (endogenous in HAP1)) (UniProt Q9H4A3)

| Molecule | binding [1] | binding [2] | binding [3] |
| --- | --- | --- | --- |
| ASK3(MAP3K15) (from UniProt Q6ZN16 1-1313) | no binding | no binding | no binding |
| OXSR1 (from UniProt O95747 1-527) | binds | binds | binds |
| TSC22D1 (protein, UniProt Q15714 1-1073) MHQPPESTAAAAAAADISARKMAHPAMFPRRGSGSGSASALNAAGTGVGSNATSSEDFPPPSLLQPPPPAASSTSGPQPPPPQSLNLLSQAQLQAQPLAPGGTQMKKKSGFQITSVTPAQISASISSNNSIAEDTESYDDLDESHTEDLSSSEILDVSLSRATDLGEPERSSSEETLNNFQEAETPGAVSPNQPHLPQPHLPHLPQQNVVINGNAHPHHLHHHHQIHHGHHLQHGHHHPSHVAVASASITGGPPSSPVSRKLSTTGSSDSITPVAPTSAVSSSGSPASVMTNMRAPSTTGGIGINSVTGTSTVNNVNITAVGSFNPNVTSSMLGNVNISTSNIPSAAGVSVGPGVTSGVNVNILSGMGNGTISSSAAVSSVPNAAAGMTGGSVSSQQQQPTVNTSRFRVVKLDSSSEPFKKGRWTCTEFYEKENAVPATEGVLINKVVETVKQNPIEVTSERESTSGSSVSSSVSTLSHYTESVGSGEMGAPTVVVQQQQQQQQQQQQQPALQGVTLQQMDFGSTGPQSIPAVSIPQSISQSQISQVQLQSQELSYQQKQGLQPVPLQATMSAATGIQPSPVNVVGVTSALGQQPSISSLAQPQLPYSQAAPPVQTPLPGAPPPQQLQYGQQQPMVSTQMAPGHVKSVTQNPASEYVQQQPILQTAMSSGQPSSAGVGAGTTVIPVAQPQGIQLPVQPTAVPAQPAGASVQPVGQAPAAVSAVPTGSQIANIGQQANIPTAVQQPSTQVPPSVIQQGAPPSSQVVPPAQTGIIHQGVQTSAPSLPQQLVIASQSSLLTVPPQPQGVEPVAQGIVSQQLPAVSSLPSASSISVTSQVSSTGPSGMPSAPTNLVPPQNIAQTPATQNGNLVQSVSQPPLIATNTNLPLAQQIPLSSTQFSAQSLAQAIGSQIEDARRAAEPSLVGLPQTISGDSGGMSAVSDGSSSSLAASASLFPLKVLPLTTPLVDGEDESSSGASVVAIDNKIEQAMDLVKSHLMYAVREEVEVLKEQIKELIEKNSQLEQENNLLKTLASPEQLAQFQAQLQTGSPPATTQPQGTTQPPAQPASQGSGPTA | binds |  |  |

Other lines, results leading:

| binding [1] | binding [2] | binding [3] | Molecule |
| --- | --- | --- | --- |
| binds |  |  | TSC22D4 (protein, UniProt Q9Y3Q8 1-395) MSGGKKKSSFQITSVTTDYEGPGSPGASDPPTPQPPTGPPPRLPNGEPSPDPGGKGTPRNGSPPPGAPSSRFRVVKLPHGLGEPYRRGRWTCVDVYERDLEPHSFGGLLEGIRGASGGAGGRSLDSRLELASLGLGAPTPPSGLSQGPTSWLRPPPTSPGPQARSFTGGLGQLVVPSKAKAEKPPLSASSPQQRPPEPETGESAGTSRAATPLPSLRVEAEAGGSGARTPPLSRRKAVDMRLRMELGAPEEMGQVPPLDSRPSSPALYFTHDASLVHKSPDPFGAVAAQKFSLAHSMLAISGHLDSDDDSGSGSLVGIDNKIEQAMDLVKSHLMFAVREEVEVLKEQIRELAERNAALEQENGLLRALASPEQLAQLPSSGVPRLGPPAPNGPSV |
| binds |  |  | TSC22D3 (protein, UniProt Q99576 1-134) MNTEMYQTPMEVAVYQLHNFSISFFSSLLGGDVVSVKLDNSASGASVVAIDNKIEQAMDLVKNHLMYAVREEVEILKEQIRELVEKNSQLERENTLLKTLASPEQLEKFQSCLSPEEPAPESPQVPEAPGGSAV |
